From patent US12379386B2, “Antibodies to 25-hydroxyvitamin D2 and D3 for detecting total 25-hydroxyvitamin D” (Siemens Healthcare Diagnostics Inc., priority 2011, dated 2025)

How the values were obtained:
[1] = test system: anti 25-hydroxy Vitamin D monoclonal antibody labeled with acridinium ester (monoclonal antibody 10H9); experiment: Cross-reactivity in ADVIA Centaur Vitamin D Total assay; assay type: binding, mouse
Protocol: Biological sample is added to a reaction cuvette followed by displacement buffer and allowed to react for 4.5 minutes. Monoclonal antibody conjugated to acridinium ester is added and allowed to react for 5.5 minutes to bind 25-hydroxyvitamin D in the sample. […] The reaction cuvette is washed, and acid and base reagents are added to initiate the chemiluminescent reaction. The time-to-result is 18 minutes. An inverse relationship exists between the amount of 25-hydroxyvitamin D in the patient sample and the amount of relative light units (RLUs) detected by the system.
Assay: The ADVIA Centaur Vitamin D Total assay is a one-pass, 18-minute antibody competitive immunoassay that uses an antifluorescein-labeled monoclonal antibody covalently bound to paramagnetic particles (PMPs), one monoclonal antibody labeled with acridinium ester (AE), and a vitamin D analog labeled with fluorescein (FIG. 8). The Vitamin D Total assay requires 20 μL of sample volume for a single determination. The time-to-first-result is 18 minutes and the throughput is 240 tests/hour.
Briefly, the first step of the sequential step hapten/antibody competitive immunoassay using chemiluminescent technology begins with the analyzer dispensing 20 μL of biological sample into a cuvette followed by addition of 200 μl of displacement buffer (50 mM HEPES, 150 mM NaCl, 0.09% sodium azide, pH=7.5) containing 8-anilino-1-naphthalenesulfonic acid ammonium salt (Sigma-aldrich, St. Louis, MO) and ethylene glycol (Sigma-aldrich, St. Louis, MO) and incubation for 4.5 minutes at 37° C. Lite Reagent (50 μL) containing an anti 25-hydroxy Vitamin D monoclonal antibody labeled with acridinium ester (monoclonal antibody 10H9) is added to the mixture and incubated for 5.5 min at 37° C. C22-PEG-BSA-fluorescein conjugate (50 μL) and anti-fluorescein monoclonal antibody coated paramagnetic microparticles (100 μL) are added to the mixture and incubated for 3.75 minutes at 37° C. The fourth step is separation of Solid Phase complex with bound C22-PEG-BSA-fluorescein conjugate and anti 25-hydroxy vitamin D monoclonal antibody labeled with acridinium ester, followed by washing three times to remove any free Lite Reagent. Last is the sequential dispensing of 300 μL each of acid reagent then base reagent to initiate the chemiluminescent reaction. The total incubation time from sample to result is 18 minutes. There is an indirect relationship between the amount of 25-hydroxy vitamin D present in the biological sample and the amount of chemiluminescence quantified as relative light units (RLUs). In the Centaur-based assay, there is an inverse relationship between RLUs emitted by the acridinium ester and the amount of vitamin D because the 25-hydroxyvitamin D released from the carrier protein in the plasma competes with the Vitamin D-BSA-Fluorescein for binding with a limited amount of the acridinium-labeled 10H9 monoclonal antibody. Higher levels of 25(OH)D in the patient sample would lower the amount of the acridinium-MAb-VitD-BSA-Fluorescein complex on the magnetic particles resulting in lower RLUs.
Cross-reactivity: Five vitamin D derivatives were analyzed using the ADVIA Centaur Vitamin D Total assay. The vitamin D derivatives were spiked into a sample containing 27 ng/mL of vitamin D total. Three replicates of the spiked samples were assayed and the vitamin D total concentration determined.

[2] = Interference study in ADVIA Centaur Vitamin D Total assay; settings: for Bias: vs matched unspiked control
[3] = crossreactant 100 ng/mL spiked, expected (endogenous) vitamin D total 27 ng/mL

**Q.** Which “Observed Vitamin D Total” value [1, 3] does the source give for `C=C1CC[C@H](O)C/C1=C/C=C1\CCC[C@]2(C)[C@@H]([C@H](C)CCCC(C)C)CC[C@@H]12` [Vitamin D3] here?
**A.** 28 ng/mL

**Q.** With `C=C1CC[C@H](O)C/C1=C/C=C1\CCC[C@]2(C)[C@@H]([C@H](C)CCCC(C)(C)O)CC[C@@H]12` [25-(OH)-Vit D3, 25-hydroxyvitamin D3] as the molecule, how does the “Observed Vitamin D Total” value ([1]; crossreactant 27 ng/mL, expected (endogenous) vitamin D total 0 ng/mL) read?
**A.** 27 ng/mL

**Q.** What does the source list for Conjugated Bilirubin?
**A.** Vitamin D Total Observed ([2]; interferent 60 mg/dL): 30.67 ng/mL; Bias ([2]; interferent 60 mg/dL): −9.31%

**Q.** For `C=C1CC[C@@H](O)C/C1=C/C=C1\CCC[C@]2(C)[C@@H]([C@H](C)CCCC(C)(C)O)CC[C@@H]12` [3-epi-25(OH)D3], which “Observed Vitamin D Total” value [1, 3] is on record?
**A.** 27 ng/mL

**Q.** Which results are given for `C=CC1=C(C)/C(=C/c2[nH]c(Cc3[nH]c(/C=C4\NC(=O)C(C)=C4C=C)c(C)c3CCC(=O)O)c(CCC(=O)O)c2C)NC1=O` [Unconjugated Bilirubin]?
**A.** Vitamin D Total Observed ([2]; interferent 60 mg/dL): 32.67 ng/mL; Bias ([2]; interferent 60 mg/dL): 5.77%

**Q.** With `C=C1CC[C@H](O)C/C1=C/C=C1\CCC[C@]2(C)[C@@H]([C@H](C)/C=C/[C@H](C)C(C)C)CC[C@@H]12` [Vitamin D2] as the molecule, how does the “Observed Vitamin D Total” value [1, 3] read?
**A.** 28 ng/mL

**Q.** For Hemoglobin: endogenous interferent, which “Vitamin D Total Observed” value ([2]; interferent 500 mg/dL) is on record?
**A.** 29.70 ng/mL

**Q.** What about the Bias ([2]; interferent 500 mg/dL) of the same molecule?
**A.** 2.13%

**Q.** For `C=C1CC[C@H](O)C/C1=C/C=C1\CCC[C@]2(C)[C@@H]([C@H](C)/C=C/[C@H](C)C(C)(C)O)CC[C@@H]12` [25-(OH)-Vit D2, 25-hydroxyvitamin D2], which “Observed Vitamin D Total” value ([1]; crossreactant 30 ng/mL spiked, expected (endogenous) vitamin D total 27 ng/mL) is on record?
**A.** 58 ng/mL

**Q.** What does the source list for `O=c1[nH]c(=O)c2[nH]c(=O)[nH]c2[nH]1` [Uric Acid]?
**A.** Vitamin D Total Observed ([2]; interferent 20 mg/dL): 33.45 ng/mL; Bias ([2]; interferent 20 mg/dL): −5.64%
